Measurements as given in paper doi:10.1101/2024.10.21.619395.
No constants are given. Whether binding was seen depends on the method and setting. Where a sequence is shown, tags or fusion partners need not be part of it.

Target: T1, G protein-coupled bile acid receptor 1 (GPBAR1), full length, with N-terminal FLAG and BRIL (human), Q8TDU6
T1 chain: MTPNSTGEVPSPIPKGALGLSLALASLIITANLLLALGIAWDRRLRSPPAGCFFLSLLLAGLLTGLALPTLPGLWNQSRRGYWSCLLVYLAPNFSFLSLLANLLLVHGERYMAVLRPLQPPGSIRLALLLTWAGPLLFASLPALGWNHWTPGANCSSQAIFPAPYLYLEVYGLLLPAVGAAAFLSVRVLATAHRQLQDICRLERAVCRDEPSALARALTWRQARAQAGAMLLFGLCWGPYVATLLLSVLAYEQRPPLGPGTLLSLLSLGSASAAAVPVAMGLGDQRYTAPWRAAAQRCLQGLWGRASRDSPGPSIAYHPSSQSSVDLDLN
Experiment: mass photometry
Details: remark: other sources report otherwise

binding: no binding
B1: G protein-coupled bile acid receptor 1 (GPBAR1), full length, with N-terminal FLAG and BRIL, Q8TDU6 1-330 (receptor)
chain: T1 chain
